Source: PMC12045350
Results are given in words; binding and its absence hold for the method and conditions named. Some binding calls cover weakened binding; strength is not graded here.

The chains behind the UniProt entries cited, without tags or fusion partners. Residues count along the entry.
UniProt P49792, residues 2503-2893: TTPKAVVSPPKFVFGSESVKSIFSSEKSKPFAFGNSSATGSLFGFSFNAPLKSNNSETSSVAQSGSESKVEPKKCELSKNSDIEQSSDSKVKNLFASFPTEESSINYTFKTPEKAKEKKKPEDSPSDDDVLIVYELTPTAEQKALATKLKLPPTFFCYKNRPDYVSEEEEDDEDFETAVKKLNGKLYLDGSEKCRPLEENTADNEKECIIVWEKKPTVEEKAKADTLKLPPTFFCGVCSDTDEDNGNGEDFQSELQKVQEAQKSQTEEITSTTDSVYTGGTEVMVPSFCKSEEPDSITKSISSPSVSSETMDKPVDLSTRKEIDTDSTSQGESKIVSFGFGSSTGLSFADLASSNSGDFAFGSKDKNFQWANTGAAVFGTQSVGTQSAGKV

Target: GST-Nup358 (res. 2503–2893) (UniProt P49792)
Assay: pull-down; GST-Nups on glutathione beads; 3 μM importin β, 1 h, 4°C; 20 mM HEPES pH 7.0, 150 mM KOAc, 2 mM Mg(OAc)2, 1 mM dithiothreitol, 0.1% Tween; then 10 μM MBP-αIBB, or 10 μM Ran-GTP, or 10 μM Ran-GTP plus 30 μM RanBP1 for 1 h at 4°C; SDS-PAGE, densitometry; both purified

| Substance | binding |
| --- | --- |
| importin β (from UniProt Q14974 1-876) | binds |
| importin β:αIBB (importin β with MBP-αIBB, pull-down) (from UniProt Q14974 1-876; P52292 2-60) (complex) | binds |
